Reference: paper PMC6879167
No constants are given. Whether binding was seen depends on the method and setting. For part of these data: Binding seen in cells or lysates may run through a third protein. Some binding calls cover weakened binding; strength is not graded here. For part of these data: Where a sequence is shown, tags or fusion partners need not be part of it. One block for each binder: values may come before it.

Assays:
[1] = target: T1, human DSTN overexpressed in HEK 293T cells (pcDNA3.1/hDSTN) (human) (UniProt P60981); assay: co-IP; HEK 293T co-transfected with pcDNA3.1/hIL-38 and pcDNA3.1/hDSTN; cellular proteins crosslinked with DSP 48 h after transfection; lysis in 20 mM Tris/HCl pH 8, 137 mM NaCl, 1% Nonidet P-40, 2 mM EDTA; IP with polyclonal anti-DSTN or anti-IL-38 antibody, normal IgG as negative control; Western blot
T1 sequence: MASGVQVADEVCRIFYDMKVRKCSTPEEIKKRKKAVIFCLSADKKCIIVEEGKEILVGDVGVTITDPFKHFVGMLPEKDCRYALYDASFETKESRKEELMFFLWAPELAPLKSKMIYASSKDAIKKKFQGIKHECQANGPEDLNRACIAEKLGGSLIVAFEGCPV

[2] = target: T2, endogenous DSTN in NHK/38 cells (human (endogenous in NHK/38 cells)) (UniProt P60981); assay: proximity ligation; NHK/38 cells with 24h Dox (1 μg/ml), fixed and permeabilized; goat anti-IL38 and rabbit anti-DSTN antibodies, DuoLink PLA probes; confocal microscopy
T2 sequence: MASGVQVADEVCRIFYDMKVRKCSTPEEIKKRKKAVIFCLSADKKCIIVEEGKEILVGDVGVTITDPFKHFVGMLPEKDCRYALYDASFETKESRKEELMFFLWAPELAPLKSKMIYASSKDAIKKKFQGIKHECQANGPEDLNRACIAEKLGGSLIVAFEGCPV

[3] = target: T3, human IL-38 (aa 30–152) bait, N-LexA(DBD)-IL-38(aa30-152)-C fusion (human) (UniProt Q8WWZ1); assay: two-hybrid; ULTImate Y2H screen (Hybrigenics Services); bait N-LexA(DBD)-IL-38(aa30-152)-C in pB27; prey library human reconstituted skin_RP2 at 10-fold coverage; 100.0 mM 3-AT to overcome auto-activation of the bait; only A-ranked preys listed
T3 sequence: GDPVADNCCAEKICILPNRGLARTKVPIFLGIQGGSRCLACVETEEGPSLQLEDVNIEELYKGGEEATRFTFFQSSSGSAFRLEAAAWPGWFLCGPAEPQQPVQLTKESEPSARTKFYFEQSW

binding [1]: binds
B1: human full-length IL-38 overexpressed in HEK 293T cells (pcDNA3.1/hIL-38) (protein, UniProt Q8WWZ1-1 1-152)
chain: MCSLPMARYYIIKYADQKALYTRDGQLLVGDPVADNCCAEKICILPNRGLARTKVPIFLGIQGGSRCLACVETEEGPSLQLEDVNIEELYKGGEEATRFTFFQSSSGSAFRLEAAAWPGWFLCGPAEPQQPVQLTKESEPSARTKFYFEQSW

binding [2]: binds
B2: human full-length IL-38 overexpressed in NHK/38 keratinocytes (pcDNA4/TO/hIL-38, Dox-inducible) (protein, UniProt Q8WWZ1-1 1-152)
chain: MCSLPMARYYIIKYADQKALYTRDGQLLVGDPVADNCCAEKICILPNRGLARTKVPIFLGIQGGSRCLACVETEEGPSLQLEDVNIEELYKGGEEATRFTFFQSSSGSAFRLEAAAWPGWFLCGPAEPQQPVQLTKESEPSARTKFYFEQSW

binding [3]: binds
B3: destrin/actin-depolymerizing factor (DSTN), yeast two-hybrid prey fragments (domain or fragment, UniProt P60981 43-148)
chain: DKKCIIVEEGKEILVGDVGVTITDPFKHFVGMLPEKDCRYALYDASFETKESRKEELMFFLWAPELAPLKSKMIYASSKDAIKKKFQGIKHECQANGPEDLNRACI
